These are yes or no findings as the source states them, for the method shown. Binding seen in cells or lysates may run through a third protein. Some entries that bind do so weakly or less than the wild type.
How the values were obtained:
[1] = target: TAZ (transcriptional co-activator with PDZ-binding motif) (human (endogenous in MCF7)) (UniProt Q9GZV5); assay: co-IP; as a1, but cells nutrient deprived for 16 hr and not treated with TGFβ (t = 0)
[2] = target: TAZ (transcriptional co-activator with PDZ-binding motif) (human (endogenous in MCF7)) (UniProt Q9GZV5); assay: co-IP; nuclear lysates (400 ug, NucBuster) of MCF7-RUNX2 Tet.OFF cells without doxycycline, treated with 2 ng/mL TGFβ for 4 and 24 hr; IP with YAP/TAZ antibody and Protein G-Sepharose in Co-IP buffer (50 mM Tris pH 7.5, 150 mM NaCl, 1 mM EDTA, 1 mM EGTA, 1% Triton X-100, 0.5% NP-40); blots probed for RUNX2 and TAZ; rabbit IgG and beads alone as controls

The chains behind the UniProt entries cited, without tags or fusion partners.
UniProt Q9GZV5: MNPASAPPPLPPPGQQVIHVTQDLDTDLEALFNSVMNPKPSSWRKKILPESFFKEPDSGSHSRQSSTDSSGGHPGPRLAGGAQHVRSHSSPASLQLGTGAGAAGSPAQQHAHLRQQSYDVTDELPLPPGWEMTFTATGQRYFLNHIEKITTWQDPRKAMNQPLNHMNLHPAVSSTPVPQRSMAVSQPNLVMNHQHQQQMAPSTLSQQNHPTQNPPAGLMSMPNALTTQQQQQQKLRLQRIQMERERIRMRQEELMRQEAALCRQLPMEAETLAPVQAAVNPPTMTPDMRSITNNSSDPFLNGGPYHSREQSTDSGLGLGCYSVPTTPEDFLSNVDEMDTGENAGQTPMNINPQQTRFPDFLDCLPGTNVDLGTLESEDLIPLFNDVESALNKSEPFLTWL
UniProt Q13950: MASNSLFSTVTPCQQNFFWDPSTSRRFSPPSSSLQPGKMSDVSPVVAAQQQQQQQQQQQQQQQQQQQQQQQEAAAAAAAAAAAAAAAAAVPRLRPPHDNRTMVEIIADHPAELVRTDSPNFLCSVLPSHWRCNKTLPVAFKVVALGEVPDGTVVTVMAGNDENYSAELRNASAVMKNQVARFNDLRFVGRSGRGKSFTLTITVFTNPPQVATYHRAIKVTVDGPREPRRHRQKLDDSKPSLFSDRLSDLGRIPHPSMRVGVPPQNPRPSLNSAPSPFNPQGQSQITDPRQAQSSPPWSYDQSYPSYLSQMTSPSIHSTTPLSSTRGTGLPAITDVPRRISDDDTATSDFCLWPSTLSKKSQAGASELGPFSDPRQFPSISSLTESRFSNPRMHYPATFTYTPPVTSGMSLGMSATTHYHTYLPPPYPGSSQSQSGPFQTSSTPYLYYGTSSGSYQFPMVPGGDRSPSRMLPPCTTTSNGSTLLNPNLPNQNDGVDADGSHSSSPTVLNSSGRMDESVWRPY

“Flag-tagged RUNX2 (from UniProt Q13950 1-521)” was tested, and the binding [1] was “no binding (condition: cells without TGFβ treatment)” and the binding [2] was “binds”.
